PubChem BioAssay (NCATS)
Several values for one entry are separate records, joined by “and”; a condition that tells them apart may be missing. Equal entries are not always repeated. Inconclusive means that the source gave no clear call. Such entries were picked first, then a sample of the others. Potencies of inconclusive entries are doubtful fits and often do not repeat. Activity calls are given as the source filed them. Unless noted, calls come from the whole dose curve; as a rule, active = well fitted curve in the direction sought with a large enough effect; inconclusive = small, poorly fitted or top-dose-only effect, or another doubt; inactive = no such curve, though single readings can be large; an effect the other way counts as inactive or inconclusive.

Tests used:
[1] = Quantitative High-Throughput drug screen in 47 multiple myeloma cell lines against the NCATS MIPE library collection: UTMC2_PLB cell viability assay (AID 1919868); conditions: CellTiter-Glo ATP luminescence, 48 h; viability (% of DMSO control): at 45.8 µM (top of the series); note: nearly all actives have a fitted effect of over 55% in size
Procedure, shortened: (§1)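 Inhibition of viability over 48 h was scored by ATP content (CellTiter-Glo) in 500-cell wells. Zero and full viability were defined by media-only and DMSO-only wells.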

[2] = Quantitative High-Throughput drug screen in 47 multiple myeloma cell lines against the NCATS MIPE library collection: RPMI8226_ATCC cell viability assay (AID 1919871); note: nearly all actives have a fitted effect of over 30% in size
Procedure, shortened: as §1

[3] = Quantitative High-Throughput drug screen in 47 multiple myeloma cell lines against the NCATS MIPE library collection: KMS28BM_JCRB cell viability assay (AID 1919874); note: nearly all actives have a fitted effect of over 35% in size
Procedure, shortened: as §1

HEK293 = assay: Cytotoxic Profiling of Annotated Libraries Using Quantitative High-Throughput Screening (AID 1296008); conditions: Five cell lines viability, CellTiter-Glo ATP luminescence, 48-72 h; max response: stronger effect = lower value; note: nearly all actives have a fitted effect of over 60% in size; for max response: % is set by controls: 0 for no effect and ±100 for the full control effect
Procedure, shortened: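 Cytotoxicity was measured as CellTiter-Glo ATP luminescence, read after 10 min at room temperature. Compound treatment of the cells lasted 48 or 72 hr at 37 degrees Celsius in a qHTS format.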

[4] = Quantitative High-Throughput drug screen in 47 multiple myeloma cell lines against the NCATS MIPE library collection: PCM6_Riken cell viability assay (AID 1919870); conditions: CellTiter-Glo ATP, 48 h; viability (% of control): at 45.8 µM (top of the series); note: nearly all actives have a fitted effect of over 30% in size
Procedure, shortened: as §1

[5] = Quantitative High-Throughput drug screen in 47 multiple myeloma cell lines against the NCATS MIPE library collection: OPM2_DSMZ cell viability assay (AID 1919872); note: nearly all actives have a fitted effect of over 30% in size
Procedure, shortened: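 Myeloma cell lines, 500 cells per well, exposed to MIPE 4.0 library compounds for 48 h at 37C, 5% CO2. Viability from ATP by CellTiter-Glo luminescence; normalised to DMSO (100%) and media-only (0%) wells.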

[6] = qHTS for identification of novel therapeutic agents for treatment of microphthalmiaassociated transcription factor (MiT) renal cell carcinoma (RCC) (AID 1963991; calls by dose curve); conditions: TFE3-RCC UOK109 viability, CellTiter-Glo, 48 h; active = Z-AUC below -0.8 in all three lines
Procedure, shortened: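 Viability of three TFE3-fusion renal carcinoma lines measured by CellTiter-Glo after 48 h treatment with each of 1912 compounds at 11 concentrations. Responses scaled between DMSO (100%) and empty wells (0%) before curve fitting.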

[7] = Quantitative High-Throughput drug screen in 47 multiple myeloma cell lines against the NCATS MIPE library collection: KMS11_JCRBsus cell viability assay (AID 1919873); note: nearly all actives have a fitted effect of over 50% in size
Procedure, shortened: as §1

[8] = Quantitative High-Throughput drug screen in 47 multiple myeloma cell lines against the NCATS MIPE library collection: PE2_PLB cell viability assay (AID 1919869); note: nearly all actives have a fitted effect of over 35% in size
Procedure, shortened: as §1
Potency is the fitted concentration of half-maximal effect.

## C=C1C(=O)OC2C=C(C)CCC=C(C)CCC12 (centres undefined)
[1]
  Potency: inactive
[2]
  Potency: inconclusive: 18.7 µM [cytotoxic, partial curve]
[3]
  Potency: active: 18.7 µM
HEK293
  Potency: inconclusive: 33.2 µM [inhibitor, single point]

## NC(=O)c1ccc2[nH]ccc2c1
[1]
  viability (% of DMSO control): inconclusive: 143% [cytotoxic]
[4]
  Potency: inconclusive: 20.9 µM [cytotoxic, single point]
[2]
  Potency: inactive
[5]
  Potency: inactive
HEK293
  max response: inactive: -1.44%

## CN(C)c1ccc(O)c2c1C[C@H]1C[C@H]3[C@H](N(C)C)C(=O)C(C(N)=O)=C(O)[C@@]3(O)C(=O)C1=C2O
[1]
  Potency: inconclusive: 11.8 µM [cytotoxic, full curve, poor fit]
[2]
  Potency: inconclusive: 5.9 µM [cytotoxic, partial curve, poor fit]
[3]
  Potency: inconclusive: 20.9 µM [cytotoxic, partial curve, poor fit]
[6]
  Potency: inconclusive: 9.35 µM [falling, full curve]
HEK293
  Potency: inconclusive: 33.5 µM [inhibitor, single point]

## CCCNCC(O)COc1ccccc1C(=O)CCc1ccccc1 (centres undefined)
[1]
  Potency: inconclusive: 0.0118 µM [rising, full curve, poor fit]
[2]
  Potency: inconclusive: 37.2 µM [cytotoxic, partial curve, poor fit]
[7]
  Potency: inconclusive: 33.2 µM [cytotoxic, single point]
[3]
  Potency: inconclusive: 18.7 µM [cytotoxic, partial curve]
[6]
  Potency: inconclusive: 18.7 µM [falling, partial curve]
HEK293
  Potency: inconclusive: 16.6 µM [inhibitor, partial curve, poor fit]

## COC(=O)N[C@H](C(=O)N1CCC[C@@H]1c1ncc(-c2ccc(-c3ccc(-c4cnc([C@@H]5CCCN5C(=O)[C@@H](NC(=O)OC)C(C)C)[nH]4)cc3)cc2)[nH]1)C(C)C
[1]
  Potency: inactive
[8]
  Potency: inconclusive: 37.2 µM [cytotoxic, single point]
[3]
  Potency: active: 20.9 µM
[6]
  Potency: inconclusive: 33.2 µM [falling, single point]
HEK293
  Potency: inconclusive: 29.6 µM [inhibitor, single point]

## CNC(=O)c1ccc(-c2cnc3ncc(Cc4ccc5ncccc5c4)n3n2)cc1F
[1]
  Potency: inconclusive: 0.935 µM [rising, full curve, poor fit]
[8]
  Potency: inconclusive: 9.35 µM [cytotoxic, partial curve, poor fit]
[4]
  Potency: inconclusive: 7.43 µM [cytotoxic, single point]
[3]
  Potency: inactive
[6]
  Potency: inconclusive: 37.2 µM [falling, single point]
HEK293
  Potency: inconclusive: 29.1 µM [inhibitor, single point]

## OC(CN1CCN(c2cccc(Cl)c2)CC1)C(c1ccccc1)c1ccccc1 (centres undefined)
[1]
  Potency: inconclusive: 0.0023 µM [rising, full curve, poor fit]
[4]
  Potency: inconclusive: 23.5 µM [cytotoxic, single point]
[2]
  Potency: inconclusive: 0.0021 µM [rising, full curve, poor fit]
[5]
  Potency: inconclusive: 0.0019 µM [rising, full curve, poor fit]
[7]
  Potency: inconclusive: 23.5 µM [cytotoxic, partial curve]
[3]
  Potency: inconclusive: 18.7 µM [cytotoxic, partial curve]
[6]
  Potency: inconclusive: 29.6 µM [falling, single point]
HEK293
  Potency: active: 9.35 µM and inconclusive: 18.4 µM [inhibitor, single point]

## COC[C@@H](c1ccc(C(F)(F)F)cc1)N1CCN(C2(C)CCN(C(=O)c3c(C)ncnc3C)CC2)C[C@H]1C
[1]
  Potency: inconclusive: 37.2 µM [cytotoxic, single point]
[8]
  Potency: inconclusive: 37.2 µM [cytotoxic, single point]
[5]
  Potency: inconclusive: 0.118 µM [rising, full curve, poor fit]
[7]
  Potency: inactive
[6]
  Potency: inconclusive: 11.8 µM [falling, partial curve]
HEK293
  Potency: inconclusive: 15 µM [inhibitor, single point]

## CON(C)C(=O)N1N=C(c2cc(F)ccc2F)S[C@]1(CCCN)c1ccccc1
[1]
  Potency: inactive
[4]
  Potency: inconclusive: 33.2 µM [cytotoxic, single point]
[2]
  Potency: inconclusive: 20.9 µM [cytotoxic, partial curve, poor fit]
[5]
  Potency: inconclusive: 10.5 µM [rising, partial curve, poor fit]
[3]
  Potency: inconclusive: 33.2 µM [cytotoxic, partial curve, poor fit]
HEK293
  Potency: inconclusive: 0.372 µM [inhibitor, partial curve, poor fit]

## CC(C)(C)C(=O)Oc1ccc2c(c1)nc(NC(=O)c1cccc([N+](=O)[O-])c1)n2CCCO
[1]
  Potency: inconclusive: 0.0059 µM [cytotoxic, full curve, poor fit]
[4]
  Potency: inactive
[2]
  Potency: active: 18.7 µM
[3]
  Potency: inactive
HEK293
  Potency: inconclusive: 0.209 µM [inhibitor, full curve]

## Nc1nc(OCc2ccccc2)c2[nH]cnc2n1
[1]
  Potency: inconclusive: 1.48 µM [cytotoxic, full curve, poor fit]
[8]
  Potency: inconclusive: 16.6 µM [cytotoxic, partial curve, poor fit]
[4]
  Potency: inconclusive: 13.2 µM [cytotoxic, partial curve]
[5]
  Potency: inactive
[6]
  Potency: inconclusive: 26.4 µM [falling, partial curve, poor fit]
HEK293
  outcome: inactive

## O=C(Nc1ccccc1Br)N[C@@H]1CCN(c2ccc(C(F)(F)F)cn2)C1
[1]
  Potency: inconclusive: 6.62 µM [rising, partial curve, poor fit]
[4]
  Potency: inconclusive: 29.6 µM [cytotoxic, partial curve, poor fit]
[5]
  Potency: inactive
[7]
  Potency: inconclusive: 20.9 µM [cytotoxic, partial curve]
[6]
  Potency: inconclusive: 16.6 µM [partial curve]
HEK293
  Potency: inconclusive: 37.2 µM [inhibitor, single point]

## O=C(C=Cc1ccc(/C=C/C(=O)Nc2ccc(C3=NCCN3)cc2)cc1)Nc1ccc(C2=NCCN2)cc1
[1]
  Potency: inconclusive: 2.35 µM [rising, full curve, poor fit]
[2]
  Potency: inactive
[5]
  Potency: active: 0.662 µM
[3]
  Potency: inactive
HEK293
  Potency: inconclusive: 37.2 µM [inhibitor, single point]

## NC(=O)c1ncn([C@@H]2O[C@H](CO)[C@@H](O)[C@@H]2O)c1N
[1]
  Potency: inconclusive: 11.8 µM [rising, single point]
[7]
  Potency: inconclusive: 0.0019 µM [rising, full curve, poor fit]
HEK293
  max response: inactive: 2.62%

## CC(C)OC(=O)C(C(=O)OC(C)C)=C1SC=CS1
[1]
  Potency: inconclusive: 0.296 µM [cytotoxic, full curve, poor fit]
[2]
  Potency: inconclusive: 4.18 µM [cytotoxic, partial curve, poor fit]
[7]
  Potency: inactive
[6]
  Potency: inconclusive: 29.6 µM
HEK293
  Potency: inconclusive: 37.2 µM [inhibitor, single point]

## C#C[C@]1(O)CC[C@H]2[C@H]3CCc4cc(OC)ccc4[C@H]3CC[C@@]21C
[1]
  viability (% of DMSO control): inconclusive: 121% [cytotoxic]
[4]
  Potency: inconclusive: 14.8 µM [cytotoxic, partial curve, poor fit]
[2]
  Potency: inconclusive: 2.64 µM [cytotoxic, partial curve, poor fit]
[5]
  Potency: inactive
[7]
  Potency: inconclusive: 33.2 µM [cytotoxic, single point]
[3]
  Potency: inconclusive: 23.5 µM [cytotoxic, partial curve, poor fit]
[6]
  Potency: inconclusive: 18.7 µM [falling, partial curve]
HEK293
  Potency: inconclusive: 37.2 µM [inhibitor, partial curve, poor fit]

## Clc1ccc(-c2nc3sccn3c2C=NOCc2ccc(Cl)c(Cl)c2)cc1
[1]
  Potency: inactive
[4]
  Potency: inconclusive: 14.8 µM [cytotoxic, partial curve, poor fit]
[2]
  Potency: inactive
HEK293
  max response: inactive: -1.21%

## N#CC(c1ccnc(NCCc2cccnc2)n1)c1nc2ccccc2s1 (centres undefined)
[1]
  Potency: active: 16.6 µM
[2]
  Potency: inconclusive: 26.4 µM [cytotoxic, single point]
[6]
  Potency: inconclusive: 8.33 µM [falling, full curve]
HEK293
  Potency: inconclusive: 33.2 µM [inhibitor, single point]

## Nc1ncnc2nc(-c3ccc(N4CCOCC4)nc3)cc(-c3cccc(Br)c3)c12
[1]
  Potency: inconclusive: 11.8 µM [cytotoxic, partial curve, poor fit]
[5]
  Potency: inconclusive: 18.7 µM [cytotoxic, partial curve, poor fit]
[7]
  Potency: inconclusive: 14.8 µM [cytotoxic, partial curve]
[3]
  Potency: inconclusive: 9.35 µM [cytotoxic, full curve, poor fit]
[6]
  Potency: inconclusive: 26.4 µM [falling, partial curve]
HEK293
  Potency: inconclusive: 37.2 µM [inhibitor, single point]

## N#Cc1ccc(C(c2ccc(C#N)cc2)n2cncn2)cc1
[1]
  Potency: inconclusive: 14.8 µM [cytotoxic, partial curve, poor fit]
[8]
  Potency: inactive
[4]
  Potency: inconclusive: 18.7 µM [cytotoxic, partial curve, poor fit]
[7]
  Potency: inconclusive: 13.2 µM [cytotoxic, partial curve]
[6]
  Potency: inconclusive: 16.6 µM
HEK293
  Potency: inconclusive: 37.2 µM [inhibitor, single point]

## Cc1cn([C@H]2C=C[C@@H](CO)O2)c(=O)[nH]c1=O
[1]
  Potency: inconclusive: 42.9 µM [rising, partial curve]
[4]
  Potency: inconclusive: 48.1 µM [cytotoxic, partial curve]
[7]
  Potency: inconclusive: 0.171 µM [rising, full curve, poor fit]
[3]
  Potency: inconclusive: 3.4 µM [rising, partial curve]
HEK293
  max response: inactive: -0.556% and inactive: 1.63%
